{"sequences": {"note": "By UniProt entry, the sequences of proteins in these tests, tags left out. Residues count along the entry.", "UniProt Q92918": "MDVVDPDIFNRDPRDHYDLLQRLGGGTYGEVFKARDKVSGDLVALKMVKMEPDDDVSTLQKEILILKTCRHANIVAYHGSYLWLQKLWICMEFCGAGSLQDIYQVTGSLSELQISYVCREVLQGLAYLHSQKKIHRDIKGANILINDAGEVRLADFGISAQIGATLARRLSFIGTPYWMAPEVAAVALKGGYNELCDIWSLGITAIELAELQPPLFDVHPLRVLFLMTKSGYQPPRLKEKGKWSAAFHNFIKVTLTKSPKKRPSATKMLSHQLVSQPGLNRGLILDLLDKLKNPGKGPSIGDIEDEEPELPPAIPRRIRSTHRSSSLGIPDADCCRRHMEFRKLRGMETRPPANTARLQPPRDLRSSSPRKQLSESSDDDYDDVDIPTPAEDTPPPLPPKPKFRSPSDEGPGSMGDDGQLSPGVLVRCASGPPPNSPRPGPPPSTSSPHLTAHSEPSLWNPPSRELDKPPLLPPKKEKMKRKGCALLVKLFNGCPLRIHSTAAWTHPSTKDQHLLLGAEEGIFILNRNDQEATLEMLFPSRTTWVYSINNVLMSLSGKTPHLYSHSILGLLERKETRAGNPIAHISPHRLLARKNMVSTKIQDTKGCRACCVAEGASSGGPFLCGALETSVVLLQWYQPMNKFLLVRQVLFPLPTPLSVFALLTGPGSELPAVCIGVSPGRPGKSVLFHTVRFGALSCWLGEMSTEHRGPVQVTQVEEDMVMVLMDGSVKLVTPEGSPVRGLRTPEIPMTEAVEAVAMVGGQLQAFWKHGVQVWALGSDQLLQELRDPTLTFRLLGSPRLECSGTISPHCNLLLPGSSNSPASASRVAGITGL", "UniProt P46108, residues 2-304": "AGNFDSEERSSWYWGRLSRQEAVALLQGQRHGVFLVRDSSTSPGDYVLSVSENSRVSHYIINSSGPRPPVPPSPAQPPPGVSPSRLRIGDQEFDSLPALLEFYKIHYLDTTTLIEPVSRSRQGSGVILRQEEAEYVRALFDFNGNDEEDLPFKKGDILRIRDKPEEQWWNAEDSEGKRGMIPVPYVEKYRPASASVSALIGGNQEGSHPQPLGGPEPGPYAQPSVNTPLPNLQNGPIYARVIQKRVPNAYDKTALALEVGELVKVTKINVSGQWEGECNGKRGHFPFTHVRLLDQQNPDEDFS"}, "source": "patent US20070087988A1", "about": "“Hematopoietic progenitor kinase 1 for modulation of an immune response” (New York University, priority 2005, published 2007)", "biological_target": "Hematopoietic progenitor kinase 1 (HPK1), endogenous protein of Jurkat T cells (human) (UniProt Q92918)", "test": "co-immunoprecipitation with anti-Crk from Jurkat lysates, anti-HPK1 Western blot", "note": "These are yes or no findings as the source states them, for the method shown. In cells and extracts the contact can be indirect. Some results given as binding are weak or reduced against the parent protein; the word gives no strength.", "data": [{"substance": "Crk adapter protein, endogenous protein of Jurkat T cells (from UniProt P46108 2-304)", "values": [{"measurement": "binding", "result": "binds"}]}]}
